This passage reports AC50 results from PubChem BioAssay AID493014 (National Center for Advancing Translational Sciences (NCATS), 2011).

This is one part of the list. Further columns of the screen follow, without active or inactive calls. Most of these compounds were active or inconclusive in the main read-out, so they are no random draw. Words in brackets tell the shape of the fitted curve; partial curves, single points and poor fits give uncertain potencies.

A short description of the assay: qHTS Assay to Find Inhibitors of Chronic Active B-Cell Receptor Signaling. Particulars: ABC-DLBCL IkBa-CBG/CBR reporter, luminescence ratio (green luciferase fused to IkBa over red control in TMD8 lymphoma cells), 4 h. Summed up: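 TMD8 human ABC-DLBCL cells with doxycycline-inducible IκBα–green luciferase fusion and unfused red luciferase, in 0.5% FBS medium; compounds up to 46 uM, 4 h at 37C. Green/red luminescence ratio, filter-overlap corrected, fitted to concentration-response curves.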

Setting [1] is: measured here: CBR red luminescence, cell number.

As to `COc1cccc(NC(=O)N2CCc3ccccc3C2)c1`, under setting [1], the AC50 was 14.1 µM [falling, partial curve].

`Cc1ccc(-c2cn(-c3ccccc3)c(SCC(N)=O)n2)cc1C`: under setting [1], the AC50 is 1.3 µM [rising, full curve].

Turning to `CC(=O)N/C(=N/c1nc(C)cc(C)n1)Nc1ccc(F)cc1F`, the AC50 under setting [1] was 2.82 µM [falling, single point].

For `O=C(O)c1ccc(CNC(=O)c2ccccc2NC(=O)c2cccc([N+](=O)[O-])c2)cc1`, the AC50 under setting [1] was 35.5 µM [falling, single point].

For `O=C(N/N=C/C1CCCCC1)c1ccccc1-n1cccc1`, under setting [1], the AC50 is 18.4 µM [rising, single point].

For the molecule `COc1cccc(C(=O)Nc2ccc(N3CCN(S(C)(=O)=O)CC3)cc2)c1`, the half-maximal activity concentration (AC50) under setting [1] is 0.164 µM [falling, full curve, poor fit].

In the case of `COC(=O)c1ccccc1NCCO`, under setting [1], the AC50 is 0.112 µM [rising, full curve, poor fit].

As to `CCC1Sc2ccc(S(=O)(=O)CCC(=O)Nc3ccc(OC(F)(F)F)cc3)cc2NC1=O` (centres undefined), under setting [1], the half-maximal activity concentration (AC50) was 28.2 µM [falling, single point].

In the case of `CCCCNC(=O)c1cccc(S(=O)(=O)N2CC3(C)CC2CC(C)(C)C3)c1` (centres undefined), the AC50 under setting [1] was 18.4 µM [falling, partial curve, poor fit].

`CCCCOc1ccc(NC(=O)C(=O)NCCCn2ccnc2)cc1`: the half-maximal activity concentration (AC50) under setting [1] is 5.8 µM [rising, partial curve, poor fit].

`Cn1c(SCc2ccccc2)nc2ccsc2c1=O`: under setting [1], the AC50 was 6.31 µM [rising, partial curve, poor fit].

As to `Cc1cccc(C(=O)O/N=C(\N)CS(=O)(=O)c2ccccc2)c1`, under setting [1], the AC50 was 2.82 µM [rising, partial curve, poor fit].

As to `COc1ccc(C(=O)/C=C/Nc2ccc([N+](=O)[O-])cc2)cc1`, under setting [1], the half-maximal activity concentration (AC50) is 0.731 µM [rising, full curve].

In the case of `O=c1oc2ccccc2n1CCCOc1ccccc1`, the AC50 under setting [1] was 4.11 µM [rising, partial curve, poor fit].

With `O=[N+]([O-])c1ccccc1S(=O)(=O)Nc1cccc2cccnc12`, the concentration at half-maximal activity (AC50) runs as follows: under setting [1], 3.55 µM [rising, full curve, poor fit]; (measured here: IkBa-CBG green luminescence) 3.55 µM [falling, partial curve, poor fit].

With `COC(=O)C1CCN(C(=O)C(C)Oc2ccc(Cl)cc2Cl)CC1` (centres undefined), the AC50 under setting [1] is 6.51 µM [falling, single point].

With `COc1cccc(NC(=O)CN(C)C(=O)CCNC(=O)c2ccc(Br)cc2)c1`, under setting [1], the AC50 was 25.9 µM [rising, partial curve, poor fit].

Take `COc1cc2c(cc1NS(=O)(=O)N1CCCC1)oc1ccccc12`: under setting [1], the AC50 is 11.6 µM [rising, partial curve, poor fit].
